Results are given in words; binding and its absence hold for the method and conditions named. Binding calls can cover weak binding; strength is not graded here. Where a sequence is shown, tags or fusion partners need not be part of it. For part of these data: In cells and extracts the contact can be indirect.
Columns and labels:
[1] = target: T1, His-HSCA2-Myc (without the mitochondrial targeting peptide) (Arabidopsis) (UniProt Q9LDZ0); assay: native gel or EMSA; BN-PAGE (5%-13%) then SDS-PAGE in the second dimension; about 10 ug of each protein in 200 uL, 4°C one hour; 50 mM Tris-HCl pH 7.4, 50 mM NaCl, 10 mM KCl, 0.1% Tween-20, 100 uM ATP; anti-Myc blot; both purified
T1 sequence: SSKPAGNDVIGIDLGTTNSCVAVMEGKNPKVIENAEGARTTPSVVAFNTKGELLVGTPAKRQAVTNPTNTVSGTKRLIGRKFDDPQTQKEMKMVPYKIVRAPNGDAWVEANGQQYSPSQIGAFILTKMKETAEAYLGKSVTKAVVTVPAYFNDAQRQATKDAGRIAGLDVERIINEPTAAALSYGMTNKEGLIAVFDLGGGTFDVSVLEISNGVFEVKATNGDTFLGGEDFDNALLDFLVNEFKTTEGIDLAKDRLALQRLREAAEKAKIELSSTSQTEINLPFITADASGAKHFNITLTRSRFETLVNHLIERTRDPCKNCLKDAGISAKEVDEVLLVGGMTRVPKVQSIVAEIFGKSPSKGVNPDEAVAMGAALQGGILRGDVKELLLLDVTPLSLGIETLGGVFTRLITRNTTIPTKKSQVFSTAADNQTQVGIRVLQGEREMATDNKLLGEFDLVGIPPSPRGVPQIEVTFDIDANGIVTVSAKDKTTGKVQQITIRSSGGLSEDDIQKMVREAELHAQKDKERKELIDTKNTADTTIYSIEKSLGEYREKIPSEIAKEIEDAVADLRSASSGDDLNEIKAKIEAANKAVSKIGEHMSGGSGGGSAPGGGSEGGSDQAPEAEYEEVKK

[2] = target: His-SSR1-Myc (without the mitochondrial targeting peptide) (Arabidopsis); assay: pull-down; Ni Sepharose; about 10 ug purified His-tagged HSCA2, HSCA2^G87D or SSR1 with BL21(DE3) lysates expressing SSR1, ISU1 or ISU1^T55M without His-tag, 1 hour at 4°C; anti-Myc blot; only the target purified
[3] = target: His-SSR1-Myc (without the mitochondrial targeting peptide) (Arabidopsis); assay: pull-down; Ni Sepharose; purified His-tagged baits with purified tag-excised preys (about 10 ug each in 200 uL), with or without SSR1-Myc; 50 mM Tris-HCl pH 7.4, 50 mM NaCl, 10 mM KCl, 0.1% Tween-20; 4°C; anti-Myc blot; both purified
[4] = target: His-SSR1-Myc (without the mitochondrial targeting peptide) (Arabidopsis); assay: native gel or EMSA; BN-PAGE (5%-13%) then SDS-PAGE in the second dimension; about 10 ug of each protein in 200 uL, 4°C one hour; 50 mM Tris-HCl pH 7.4, 50 mM NaCl, 10 mM KCl, 0.1% Tween-20, 100 uM ATP; anti-Myc blot; both purified
[5] = target: SSR1-Flag (Flag-tagged full-length SSR1 under the CaMV 35S promoter) (Arabidopsis); assay: co-IP; extracts of 12-day-old transgenic seedlings with 35Spro:SSR1-Flag and HSCA2pro:HSCA2-Myc; anti-Flag (DYKDDDDK Isolation Kit, Miltenyi) precipitation; blots with anti-Myc and anti-ISU

His-SSR1-Myc (without the mitochondrial targeting peptide) (Arabidopsis)
binding [1]: binds

B1: ISU1-Myc expressed without His-tag, in E. coli lysate (without the mitochondrial targeting peptide) (protein, UniProt O49627 51-167)
chain: PNVGTGLVGAPACGDVMKLQIKVDEKTGQIVDARFKTFGCGSAIASSSVATEWVKGKAMEDVLTIKNTEIAKHLSLPPVKLHCSMLAEDAIKAAVKDYKEKRVKTNGAAAAGETTQA
binding [2]: binds

B2: ISU1-Myc, purified, His-tag excised (without the mitochondrial targeting peptide) (protein, UniProt O49627 51-167)
chain: B1 chain
binding [3]: binds | binding [4]: binds

B3: HSCA2-Myc (Myc-tagged full-length HSCA2 under its native promoter) (protein, UniProt Q9LDZ0 51-682)
chain: T1 sequence
binding [5]: binds

B4: ISU1, endogenous (detected with anti-ISU antibody) (protein, UniProt O49627 51-167)
chain: B1 chain
binding [5]: binds
